The source of these data is publication doi:10.1101/2020.12.11.420943.

Protein sequences, listed by entry. Tags and fused reporters are not part of them. Residues count along the entry.
UniProt Q00517, residues 44-237: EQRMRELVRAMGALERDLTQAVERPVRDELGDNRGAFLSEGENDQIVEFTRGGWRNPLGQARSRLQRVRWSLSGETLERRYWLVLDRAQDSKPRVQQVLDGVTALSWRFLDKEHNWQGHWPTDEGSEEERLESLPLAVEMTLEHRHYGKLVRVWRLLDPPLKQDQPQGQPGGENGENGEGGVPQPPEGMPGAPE
UniProt Q00516, residues 38-129: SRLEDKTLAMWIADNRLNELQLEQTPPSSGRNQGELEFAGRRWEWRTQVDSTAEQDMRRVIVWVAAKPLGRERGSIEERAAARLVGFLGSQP

The target in this assay is XcpJp, soluble periplasmic domain of the minor pseudopilin XcpJ (Pseudomonas aeruginosa) (UniProt Q00517). The assay is described as follows: cross-linking.

These are yes or no findings as the source states them, for the method shown. Some binding calls cover weakened binding; strength is not graded here.

With “XcpIp, soluble periplasmic domain of the minor pseudopilin XcpI (from UniProt Q00516 38-129) (domain or fragment)”, the binding result is recorded as “binds”.
